# Assay results from publication PMC9239253.
# Protein sequences, listed by entry. Tags and fused reporters are not part of them.
# UniProt Q9H171: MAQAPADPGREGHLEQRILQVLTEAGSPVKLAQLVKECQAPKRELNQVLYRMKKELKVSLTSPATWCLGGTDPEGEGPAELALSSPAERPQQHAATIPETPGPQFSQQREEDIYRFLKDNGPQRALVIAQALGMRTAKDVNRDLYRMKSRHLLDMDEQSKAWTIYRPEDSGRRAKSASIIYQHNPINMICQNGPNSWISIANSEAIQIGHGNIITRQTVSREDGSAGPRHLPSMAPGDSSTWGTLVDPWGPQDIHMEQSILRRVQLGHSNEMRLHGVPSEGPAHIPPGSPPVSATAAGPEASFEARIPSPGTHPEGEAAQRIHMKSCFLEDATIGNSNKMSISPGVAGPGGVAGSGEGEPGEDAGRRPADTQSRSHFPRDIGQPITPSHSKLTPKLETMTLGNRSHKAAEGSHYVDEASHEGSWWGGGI
# UniProt Q7Z6Z7: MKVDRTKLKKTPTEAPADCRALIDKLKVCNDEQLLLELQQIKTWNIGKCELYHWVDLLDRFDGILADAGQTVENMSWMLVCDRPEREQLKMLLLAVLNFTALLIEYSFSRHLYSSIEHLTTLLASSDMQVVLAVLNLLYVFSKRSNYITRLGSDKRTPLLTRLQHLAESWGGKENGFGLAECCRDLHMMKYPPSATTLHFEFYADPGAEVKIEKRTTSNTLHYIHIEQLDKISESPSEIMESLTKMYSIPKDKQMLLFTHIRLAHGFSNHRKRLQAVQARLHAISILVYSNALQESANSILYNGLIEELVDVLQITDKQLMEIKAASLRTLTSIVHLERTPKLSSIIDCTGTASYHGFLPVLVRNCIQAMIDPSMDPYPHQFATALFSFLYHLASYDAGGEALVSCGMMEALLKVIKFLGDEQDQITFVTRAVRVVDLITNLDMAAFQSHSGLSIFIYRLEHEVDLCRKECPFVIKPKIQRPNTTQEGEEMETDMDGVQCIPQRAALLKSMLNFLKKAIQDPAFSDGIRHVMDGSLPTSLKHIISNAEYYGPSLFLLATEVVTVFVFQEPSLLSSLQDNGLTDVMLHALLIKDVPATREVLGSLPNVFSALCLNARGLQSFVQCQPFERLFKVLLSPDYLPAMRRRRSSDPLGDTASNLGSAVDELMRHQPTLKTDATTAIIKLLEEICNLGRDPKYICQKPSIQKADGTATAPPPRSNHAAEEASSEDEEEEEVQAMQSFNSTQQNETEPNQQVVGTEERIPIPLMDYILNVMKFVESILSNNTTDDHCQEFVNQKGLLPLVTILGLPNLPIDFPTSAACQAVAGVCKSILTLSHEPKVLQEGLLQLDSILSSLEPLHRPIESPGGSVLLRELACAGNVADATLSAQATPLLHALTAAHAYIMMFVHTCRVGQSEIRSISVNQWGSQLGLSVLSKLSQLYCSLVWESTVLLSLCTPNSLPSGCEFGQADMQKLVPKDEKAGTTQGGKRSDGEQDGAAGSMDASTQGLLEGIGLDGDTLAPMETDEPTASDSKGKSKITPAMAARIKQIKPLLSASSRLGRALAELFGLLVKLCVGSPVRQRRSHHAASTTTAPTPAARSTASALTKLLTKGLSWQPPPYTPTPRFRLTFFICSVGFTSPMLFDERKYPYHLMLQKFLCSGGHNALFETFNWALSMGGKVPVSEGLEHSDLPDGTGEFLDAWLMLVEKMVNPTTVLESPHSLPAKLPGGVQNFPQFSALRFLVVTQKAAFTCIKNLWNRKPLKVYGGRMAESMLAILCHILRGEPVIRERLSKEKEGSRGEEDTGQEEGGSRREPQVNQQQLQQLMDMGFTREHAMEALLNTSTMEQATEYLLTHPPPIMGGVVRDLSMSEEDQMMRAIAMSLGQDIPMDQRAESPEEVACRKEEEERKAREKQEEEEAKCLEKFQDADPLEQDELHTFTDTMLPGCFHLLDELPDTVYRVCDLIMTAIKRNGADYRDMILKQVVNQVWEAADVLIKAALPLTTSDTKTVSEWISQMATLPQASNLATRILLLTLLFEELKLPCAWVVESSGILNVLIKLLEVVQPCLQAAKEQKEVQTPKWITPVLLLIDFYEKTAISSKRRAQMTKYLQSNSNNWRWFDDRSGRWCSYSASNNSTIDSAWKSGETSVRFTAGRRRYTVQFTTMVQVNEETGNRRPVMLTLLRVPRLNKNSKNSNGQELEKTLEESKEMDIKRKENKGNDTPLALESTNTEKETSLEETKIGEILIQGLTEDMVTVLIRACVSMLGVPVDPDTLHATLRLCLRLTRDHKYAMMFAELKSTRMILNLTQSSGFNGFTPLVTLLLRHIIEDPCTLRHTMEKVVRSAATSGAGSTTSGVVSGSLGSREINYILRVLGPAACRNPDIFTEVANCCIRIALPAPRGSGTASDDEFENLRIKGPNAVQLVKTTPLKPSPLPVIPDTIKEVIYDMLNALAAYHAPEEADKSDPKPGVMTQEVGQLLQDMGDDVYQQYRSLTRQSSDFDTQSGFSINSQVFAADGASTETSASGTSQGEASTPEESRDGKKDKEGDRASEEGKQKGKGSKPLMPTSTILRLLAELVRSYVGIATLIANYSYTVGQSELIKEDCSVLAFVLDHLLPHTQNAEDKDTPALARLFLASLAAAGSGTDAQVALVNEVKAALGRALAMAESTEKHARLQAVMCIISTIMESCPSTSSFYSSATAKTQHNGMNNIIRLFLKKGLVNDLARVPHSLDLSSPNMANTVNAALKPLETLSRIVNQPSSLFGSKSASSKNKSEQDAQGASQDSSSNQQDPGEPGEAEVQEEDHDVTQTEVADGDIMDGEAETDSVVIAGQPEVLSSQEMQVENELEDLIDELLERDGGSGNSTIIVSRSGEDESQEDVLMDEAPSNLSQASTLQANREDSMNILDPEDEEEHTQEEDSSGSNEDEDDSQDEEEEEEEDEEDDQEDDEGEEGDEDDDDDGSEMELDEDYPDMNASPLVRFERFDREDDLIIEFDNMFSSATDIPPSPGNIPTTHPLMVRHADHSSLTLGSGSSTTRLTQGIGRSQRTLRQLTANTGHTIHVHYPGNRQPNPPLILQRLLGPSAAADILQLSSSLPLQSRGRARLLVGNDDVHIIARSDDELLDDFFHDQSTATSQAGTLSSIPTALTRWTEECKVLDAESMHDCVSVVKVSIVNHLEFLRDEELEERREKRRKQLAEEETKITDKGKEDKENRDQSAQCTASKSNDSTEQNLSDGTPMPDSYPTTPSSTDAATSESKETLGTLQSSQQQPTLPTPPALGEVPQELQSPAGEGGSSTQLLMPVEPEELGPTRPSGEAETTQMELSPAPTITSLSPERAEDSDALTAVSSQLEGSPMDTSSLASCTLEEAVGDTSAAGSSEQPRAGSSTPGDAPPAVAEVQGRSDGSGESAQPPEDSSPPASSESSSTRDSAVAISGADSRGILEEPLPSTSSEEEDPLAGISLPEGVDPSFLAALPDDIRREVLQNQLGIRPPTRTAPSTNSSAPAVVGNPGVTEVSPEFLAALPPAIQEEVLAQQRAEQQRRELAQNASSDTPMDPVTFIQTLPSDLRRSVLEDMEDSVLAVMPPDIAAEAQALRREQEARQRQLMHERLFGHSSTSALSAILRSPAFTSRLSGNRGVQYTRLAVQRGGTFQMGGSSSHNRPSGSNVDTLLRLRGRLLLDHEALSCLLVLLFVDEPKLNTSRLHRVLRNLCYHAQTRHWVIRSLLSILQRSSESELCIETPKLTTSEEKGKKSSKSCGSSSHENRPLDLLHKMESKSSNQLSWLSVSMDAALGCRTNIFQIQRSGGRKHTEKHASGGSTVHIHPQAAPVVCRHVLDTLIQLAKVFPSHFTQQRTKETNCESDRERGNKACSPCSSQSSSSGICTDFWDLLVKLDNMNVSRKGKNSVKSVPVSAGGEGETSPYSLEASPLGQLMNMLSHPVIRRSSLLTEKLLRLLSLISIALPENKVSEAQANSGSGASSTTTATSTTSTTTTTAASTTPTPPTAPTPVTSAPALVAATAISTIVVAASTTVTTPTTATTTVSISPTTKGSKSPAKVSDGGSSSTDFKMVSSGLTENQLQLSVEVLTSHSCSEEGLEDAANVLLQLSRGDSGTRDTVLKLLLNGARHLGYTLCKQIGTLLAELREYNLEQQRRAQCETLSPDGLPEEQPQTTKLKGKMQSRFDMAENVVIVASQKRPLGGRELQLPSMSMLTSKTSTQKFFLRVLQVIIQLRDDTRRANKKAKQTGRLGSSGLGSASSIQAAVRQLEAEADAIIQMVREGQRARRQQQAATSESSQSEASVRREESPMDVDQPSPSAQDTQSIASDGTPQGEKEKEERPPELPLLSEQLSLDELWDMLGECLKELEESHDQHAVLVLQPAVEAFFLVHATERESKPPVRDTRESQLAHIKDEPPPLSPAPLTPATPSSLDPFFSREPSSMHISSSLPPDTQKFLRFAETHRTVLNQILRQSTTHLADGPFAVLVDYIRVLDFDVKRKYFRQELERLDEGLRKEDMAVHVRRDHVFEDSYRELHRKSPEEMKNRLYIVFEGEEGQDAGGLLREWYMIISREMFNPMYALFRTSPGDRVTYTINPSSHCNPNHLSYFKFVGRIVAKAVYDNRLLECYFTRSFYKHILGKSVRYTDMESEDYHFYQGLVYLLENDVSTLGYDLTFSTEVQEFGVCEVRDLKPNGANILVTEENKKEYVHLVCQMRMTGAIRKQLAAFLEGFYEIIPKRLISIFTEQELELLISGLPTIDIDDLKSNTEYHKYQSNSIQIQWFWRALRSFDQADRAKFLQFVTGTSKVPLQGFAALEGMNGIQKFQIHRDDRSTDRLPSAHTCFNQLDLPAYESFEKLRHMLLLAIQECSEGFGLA
# UniProt O95819: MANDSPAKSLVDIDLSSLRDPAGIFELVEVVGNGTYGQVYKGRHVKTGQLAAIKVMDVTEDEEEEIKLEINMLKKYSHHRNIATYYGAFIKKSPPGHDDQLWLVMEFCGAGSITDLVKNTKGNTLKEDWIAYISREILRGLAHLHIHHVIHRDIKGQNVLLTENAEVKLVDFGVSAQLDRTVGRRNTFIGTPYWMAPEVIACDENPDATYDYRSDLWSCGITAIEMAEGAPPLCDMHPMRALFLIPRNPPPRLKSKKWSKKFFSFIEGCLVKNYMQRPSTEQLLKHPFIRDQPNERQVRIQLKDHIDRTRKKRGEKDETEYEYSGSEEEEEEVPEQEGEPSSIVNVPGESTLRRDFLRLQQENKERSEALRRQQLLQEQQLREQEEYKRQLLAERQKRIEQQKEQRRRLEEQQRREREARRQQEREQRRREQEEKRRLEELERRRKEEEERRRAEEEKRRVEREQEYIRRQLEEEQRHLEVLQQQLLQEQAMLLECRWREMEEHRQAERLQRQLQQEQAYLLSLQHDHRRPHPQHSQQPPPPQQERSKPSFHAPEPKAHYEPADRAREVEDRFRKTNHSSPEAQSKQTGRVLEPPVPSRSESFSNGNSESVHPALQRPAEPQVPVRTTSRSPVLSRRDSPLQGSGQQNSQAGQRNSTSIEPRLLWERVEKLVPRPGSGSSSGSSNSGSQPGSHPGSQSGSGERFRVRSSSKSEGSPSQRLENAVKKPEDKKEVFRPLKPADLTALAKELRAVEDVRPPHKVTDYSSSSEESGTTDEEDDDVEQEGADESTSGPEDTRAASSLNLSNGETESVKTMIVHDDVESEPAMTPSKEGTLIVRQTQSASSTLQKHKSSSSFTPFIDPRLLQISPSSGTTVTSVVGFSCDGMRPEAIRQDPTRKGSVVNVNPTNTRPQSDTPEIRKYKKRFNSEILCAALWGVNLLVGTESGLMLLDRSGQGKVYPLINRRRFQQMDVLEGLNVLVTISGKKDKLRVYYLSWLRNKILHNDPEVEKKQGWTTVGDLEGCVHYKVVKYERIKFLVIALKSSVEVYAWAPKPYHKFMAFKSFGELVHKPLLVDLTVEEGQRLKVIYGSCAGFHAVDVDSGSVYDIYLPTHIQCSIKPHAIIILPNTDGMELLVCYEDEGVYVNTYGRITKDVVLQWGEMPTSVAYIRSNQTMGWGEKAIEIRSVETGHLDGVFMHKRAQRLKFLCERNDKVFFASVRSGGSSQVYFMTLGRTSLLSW
# Target: DAI-TurboID (UniProt Q9H171)
# Experiment: proximity labelling
row,binding,Molecule
1,binds,"HECT, UBA, and WWE domain-containing E3 ubiquitin protein ligase 1 (HUWE1) (from UniProt Q7Z6Z7 1-4374)"
2,binds,cullin-associated NEDD8-dissociated protein 1 (CAND1) (from UniProt Q86VP6 1-1230)
3,binds,mitogen-activated protein kinase kinase kinase kinase 4 (MAP4K4) (from UniProt O95819 1-1239)
4,binds,"sperm-associated antigen 9 (SPAG9) (protein, UniProt O60271 1-1321) MELEDGVVYQEEPGGSGAVMSERVSGLAGSIYREFERLIGRYDEEVVKELMPLVVAVLENLDSVFAQDQEHQVELELLRDDNEQLITQYEREKALRKHAEEKFIEFEDSQEQEKKDLQTRVESLESQTRQLELKAKNYADQISRLEEREAELKKEYNALHQRHTEMIHNYMEHLERTKLHQLSGSDQLESTAHSRIRKERPISLGIFPLPAGDGLLTPDAQKGGETPGSEQWKFQELSQPRSHTSLKVSNSPEPQKAVEQEDELSDVSQGGSKATTPASTANSDVATIPTDTPLKEENEGFVKVTDAPNKSEISKHIEVQVAQETRNVSTGSAENEEKSEVQAIIESTPELDMDKDLSGYKGSSTPTKGIENKAFDRNTESLFEELSSAGSGLIGDVDEGADLLGMGREVENLILENTQLLETKNALNIVKNDLIAKVDELTCEKDVLQGELEAVKQAKLKLEEKNRELEEELRKARAEAEDARQKAKDDDDSDIPTAQRKRFTRVEMARVLMERNQYKERLMELQEAVRWTEMIRASRENPAMQEKKRSSIWQFFSRLFSSSSNTTKKPEPPVNLKYNAPTSHVTPSVKKRSSTLSQLPGDKSKAFDFLSEETEASLASRREQKREQYRQVKAHVQKEDGRVQAFGWSLPQKYKQVTNGQGENKMKNLPVPVYLRPLDEKDTSMKLWCAVGVNLSGGKTRDGGSVVGASVFYKDVAGLDTEGSKQRSASQSSLDKLDQELKEQQKELKNQEELSSLVWICTSTHSATKVLIIDAVQPGNILDSFTVCNSHVLCIASVPGARETDYPAGEDLSESGQVDKASLCGSMTSNSSAETDSLLGGITVVGCSAEGVTGAATSPSTNGASPVMDKPPEMEAENSEVDENVPTAEEATEATEGNAGSAEDTVDISQTGVYTEHVFTDPLGVQIPEDLSPVYQSSNDSDAYKDQISVLPNEQDLVREEAQKMSSLLPTMWLGAQNGCLYVHSSVAQWRKCLHSIKLKDSILSIVHVKGIVLVALADGTLAIFHRGVDGQWDLSNYHLLDLGRPHHSIRCMTVVHDKVWCGYRNKIYVVQPKAMKIEKSFDAHPRKESQVRQLAWVGDGVWVSIRLDSTLRLYHAHTYQHLQDVDIEPYVSKMLGTGKLGFSFVRITALMVSCNRLWVGTGNGVIISIPLTETNKTSGVPGNRPGSVIRVYGDENSDKVTPGTFIPYCSMAHAQLCFHGHRDAVKFFVAVPGQVISPQSSSSGTDLTGDKAGPSAQEPGSQTPLKSMLVISGGEGYIDFRMGDEGGESELLGEDLPLEPSVTKAERSHLIVWQVMYGNE"

# Results are given in words; binding and its absence hold for the method and conditions named. Binding seen in cells or lysates may run through a third protein. Here binding means that the protein was enriched with, or labelled near, the bait; the list need not be complete.
